Assay results taken from patent publication US10011842B2, “Escherichia coli cell line with thyA knockout, folA knockout, and one or both of folP knockout, and folK knockout” (priority 2013, dated 2018).
For at least one compound, name, drawing or mass did not settle the structure.

What was measured:
[1] = system: PEcΔTFP transformed with plasmids containing Pfdhfr-ts (WT) and Pfhppk-dhps (WT); assay: growth inhibition of PEcΔTFP surrogate host (antifolate drug screening); format: cell-based, Escherichia coli BL21(DE3); details: PEcΔTFP with wild type Pfdhfr-ts and Pfhppk-dhps, minimal media with L-arabinose, 37 degrees Celsius, 16 hours
Experimental: (§1) Pyrimethamine and sulfathiazole were chosen for this experiment. The 50% inhibitory concentrations (IC50) of each drug were calculated from dose-response growth curves for PEcΔTFP and PEcΔTFPK surrogates transformed with plasmids containing wild type Pfdhfr-ts and Pfhppk-dhps. Cells were incubated in various concentrations of drug in minimal media supplemented with L-arabinose as an inducer and antibiotics for selection of complementing plasmids in 96-well plates at 37 degrees Celsius for 16 hours.

[2] = system: PEcΔTFPK transformed with plasmids containing Pfdhfr-ts (WT) and Pfhppk-dhps (WT); assay: growth inhibition of PEcΔTFPK surrogate host (antifolate drug screening); format: cell-based, Escherichia coli BL21(DE3); details: PEcΔTFPK with wild type Pfdhfr-ts and Pfhppk-dhps, minimal media with L-arabinose, 37 degrees Celsius, 16 hours
Experimental: as §1

For `CCc1nc(N)nc(N)c1-c1ccc(Cl)cc1` [pyrimethamine], the “IC50 from dose-response growth curves compared with the standard method” value [1] was “very similar to values from the standard hypoxanthine incorporation method” and the “IC50 from dose-response growth curves compared with the standard method” value [2] was “very similar to values from the standard hypoxanthine incorporation method”.
